Binding data for two substances are collected here from paper PMC6025110.

By UniProt entry, the sequences of proteins in these tests, tags left out. Residues count along the entry.
UniProt Q14667, residues 32-2235: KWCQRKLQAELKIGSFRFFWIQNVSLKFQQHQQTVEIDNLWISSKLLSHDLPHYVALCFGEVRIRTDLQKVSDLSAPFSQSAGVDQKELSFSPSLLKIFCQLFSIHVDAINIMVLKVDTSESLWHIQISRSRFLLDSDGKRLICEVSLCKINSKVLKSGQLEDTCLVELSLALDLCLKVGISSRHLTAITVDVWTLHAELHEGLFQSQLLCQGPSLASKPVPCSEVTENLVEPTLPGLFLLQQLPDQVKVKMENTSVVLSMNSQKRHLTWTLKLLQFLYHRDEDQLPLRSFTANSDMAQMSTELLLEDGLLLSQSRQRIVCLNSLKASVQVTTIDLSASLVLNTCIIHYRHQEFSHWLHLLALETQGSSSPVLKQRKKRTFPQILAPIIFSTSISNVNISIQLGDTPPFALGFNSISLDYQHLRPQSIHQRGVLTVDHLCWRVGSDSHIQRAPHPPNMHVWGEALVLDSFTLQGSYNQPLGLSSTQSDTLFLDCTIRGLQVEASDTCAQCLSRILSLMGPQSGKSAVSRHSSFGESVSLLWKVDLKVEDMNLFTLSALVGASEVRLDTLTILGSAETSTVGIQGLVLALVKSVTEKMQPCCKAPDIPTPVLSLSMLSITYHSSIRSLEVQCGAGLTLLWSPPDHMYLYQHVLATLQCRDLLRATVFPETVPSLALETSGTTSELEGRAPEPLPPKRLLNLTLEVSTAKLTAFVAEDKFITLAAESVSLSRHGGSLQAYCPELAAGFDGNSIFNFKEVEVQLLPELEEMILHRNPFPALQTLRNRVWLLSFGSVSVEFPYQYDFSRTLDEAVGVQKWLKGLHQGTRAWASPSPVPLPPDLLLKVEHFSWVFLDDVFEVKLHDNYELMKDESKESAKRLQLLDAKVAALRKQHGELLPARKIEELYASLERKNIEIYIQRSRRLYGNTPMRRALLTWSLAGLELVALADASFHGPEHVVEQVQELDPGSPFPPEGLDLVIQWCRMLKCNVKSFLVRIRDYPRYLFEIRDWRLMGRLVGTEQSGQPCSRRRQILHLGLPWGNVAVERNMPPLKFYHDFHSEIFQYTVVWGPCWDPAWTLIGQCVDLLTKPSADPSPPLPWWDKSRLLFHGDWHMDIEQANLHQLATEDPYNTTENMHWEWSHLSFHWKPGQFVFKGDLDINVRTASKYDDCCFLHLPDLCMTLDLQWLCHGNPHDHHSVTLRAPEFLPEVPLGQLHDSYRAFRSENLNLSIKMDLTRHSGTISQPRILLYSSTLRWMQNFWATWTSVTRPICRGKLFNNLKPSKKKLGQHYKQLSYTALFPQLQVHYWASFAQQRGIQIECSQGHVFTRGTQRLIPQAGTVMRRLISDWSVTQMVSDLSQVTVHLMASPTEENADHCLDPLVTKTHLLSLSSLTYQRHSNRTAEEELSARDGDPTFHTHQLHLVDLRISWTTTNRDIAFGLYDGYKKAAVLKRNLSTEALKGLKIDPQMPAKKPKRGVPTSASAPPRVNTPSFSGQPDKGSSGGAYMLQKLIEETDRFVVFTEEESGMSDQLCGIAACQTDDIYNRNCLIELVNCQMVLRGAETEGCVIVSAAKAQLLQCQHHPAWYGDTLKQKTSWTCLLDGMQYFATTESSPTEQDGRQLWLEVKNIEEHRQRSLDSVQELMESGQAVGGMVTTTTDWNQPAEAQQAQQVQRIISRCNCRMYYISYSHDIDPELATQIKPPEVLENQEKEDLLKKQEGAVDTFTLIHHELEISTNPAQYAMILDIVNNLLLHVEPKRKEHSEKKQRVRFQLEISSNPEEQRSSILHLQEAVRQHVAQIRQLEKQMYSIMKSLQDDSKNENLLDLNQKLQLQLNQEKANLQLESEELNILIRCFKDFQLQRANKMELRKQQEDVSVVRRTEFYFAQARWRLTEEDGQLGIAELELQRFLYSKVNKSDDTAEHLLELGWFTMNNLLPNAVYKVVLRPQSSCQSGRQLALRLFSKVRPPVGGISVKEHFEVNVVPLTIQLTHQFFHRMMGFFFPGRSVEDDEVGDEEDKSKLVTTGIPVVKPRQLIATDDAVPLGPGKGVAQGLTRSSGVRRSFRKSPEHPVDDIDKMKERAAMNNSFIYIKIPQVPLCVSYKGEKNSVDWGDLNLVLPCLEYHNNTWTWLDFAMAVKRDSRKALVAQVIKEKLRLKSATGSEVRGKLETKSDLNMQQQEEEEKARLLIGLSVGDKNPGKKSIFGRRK
UniProt P0DMV8: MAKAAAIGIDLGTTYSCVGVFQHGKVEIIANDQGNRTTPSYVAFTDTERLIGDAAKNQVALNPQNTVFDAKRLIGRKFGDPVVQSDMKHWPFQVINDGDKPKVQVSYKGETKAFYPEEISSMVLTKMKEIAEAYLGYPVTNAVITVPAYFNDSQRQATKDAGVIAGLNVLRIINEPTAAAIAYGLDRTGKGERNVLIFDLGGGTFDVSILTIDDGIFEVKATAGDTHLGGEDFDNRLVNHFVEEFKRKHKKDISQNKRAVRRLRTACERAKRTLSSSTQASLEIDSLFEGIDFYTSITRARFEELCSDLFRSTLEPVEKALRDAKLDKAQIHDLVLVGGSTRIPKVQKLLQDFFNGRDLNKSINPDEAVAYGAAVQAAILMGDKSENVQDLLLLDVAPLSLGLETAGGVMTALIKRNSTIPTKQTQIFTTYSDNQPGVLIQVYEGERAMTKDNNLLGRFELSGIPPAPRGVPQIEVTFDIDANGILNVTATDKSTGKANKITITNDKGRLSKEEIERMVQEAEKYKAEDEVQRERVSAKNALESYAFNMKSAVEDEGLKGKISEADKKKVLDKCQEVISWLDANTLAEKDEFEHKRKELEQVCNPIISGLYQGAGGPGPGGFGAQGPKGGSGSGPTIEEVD

The target in assay [1] is recombinant KIAA0100 protein with FLAG and Myc tags on its C-terminus (human) (UniProt Q14667). Briefly: co-IP; HEK293/pKIA cells cross-linked with 6 mM DTBP for 5 min, NP40 lysis buffer; capture with anti-FLAG monoclonal antibody on Dynabeads protein G; Western blot; controls anti-DIG isotype antibody and bare beads.
Assay [2] deals with HSPA1A (human (endogenous in HEK293)) (UniProt P0DMV8). The assay can be described thus: co-IP; HEK293/pKIA cells cross-linked with 6 mM DTBP for 5 min, NP40 lysis buffer; capture with anti-HSPA1A monoclonal antibody on Dynabeads protein G; Western blot; controls anti-DIG isotype antibody and bare beads.

Results are given in words; binding and its absence hold for the method and conditions named. Binding seen in cells or lysates may run through a third protein. Some entries that bind do so weakly or less than the wild type.

Regarding HSPA1A (from UniProt P0DMV8 1-641), in assay [1], the binding entry is “binds”. Turning to “recombinant KIAA0100 protein with FLAG and Myc tags on its C-terminus (from UniProt Q14667 32-2235)”, the binding result in assay [2] is given as “binds”.
